# In patent US20060058505A1, “Nucleic acid and polypeptide linked to breast cancer and uses therefor” (priority 2001, published 2006):
# These are yes or no findings as the source states them, for the method shown. Some entries that bind do so weakly or less than the wild type. Where a sequence is shown, tags or fusion partners need not be part of it.
# T1: His-tagged N-terminal domain of rasGAP^120 (amino acids 1-356, includes the full SH3 domain) (UniProt P20936)
# T1 sequence (looked up): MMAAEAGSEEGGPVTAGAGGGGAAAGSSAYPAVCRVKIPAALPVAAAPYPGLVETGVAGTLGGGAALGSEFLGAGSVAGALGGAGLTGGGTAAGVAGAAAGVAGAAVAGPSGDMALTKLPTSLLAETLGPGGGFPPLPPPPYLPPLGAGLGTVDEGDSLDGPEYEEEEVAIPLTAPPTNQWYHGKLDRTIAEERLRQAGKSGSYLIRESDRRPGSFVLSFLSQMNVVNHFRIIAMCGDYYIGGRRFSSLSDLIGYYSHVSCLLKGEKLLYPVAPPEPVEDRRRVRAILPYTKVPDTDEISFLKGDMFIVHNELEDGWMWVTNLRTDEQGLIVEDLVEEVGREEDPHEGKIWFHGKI
# Target: T1, His-tagged N-terminal domain of rasGAP^120 (amino acids 1-356, includes the full SH3 domain)
# Assay: GST bead binding assay, anti-His Western blot
row,binding,Molecule
1,binds,GST fusion full length G3BP-1 (from UniProt Q13283 1-466)
2,binds,"δ-2a-N146 (GST fusion of G3BP-2a N-terminal amino acids 1 to 146, the NTF2-like domain) (protein, not shown: a dimerising Fc or GST; large carriers; small tags and cut ends) MVMEKPSPLLVGREFVRQYYTLLNKAPEYLHRFYGRNSSYVHGGVDASGKPQEAVYGQNDIHHKVLSLNFSECHTKIRHVDAHATLSDGVVVQVMGLLSNSGQPERKFMQTFVLAPEGSVPNKFYVHNDMFRYEDEVFGDSEPELD"
3,binds,"GST fusion full length G3BP-2a (protein, not shown: a dimerising Fc or GST) MVMEKPSPLLVGREFVRQYYTLLNKAPEYLHRFYGRNSSYVHGGVDASGKPQEAVYGQNDIHHKVLSLNFSECHTKIRHVDAHATLSDGVVVQVMGLLSNSGQPERKFMQTFVLAPEGSVPNKFYVHNDMFRYEDEVFGDSEPELDEESEDEVEEEQEERQPSPEPVQENANSGYYEAHPVTNGIEEPLEESSHEPEPEPESETKTEELKPQVEEKNLEELEEKSTTPPPAEPVSLPQEPPKAFSWASVTSKNLPPSGTVSSSGIPSHVKAPVSQPRVEAKPEVQSQPPRVREQRPRERPGFPPRGPRPGRGDMEQNDSDNRRIIRYPDSHQLFVGNLPHDIDENELKEFFMSFGNVVELRINTKGVGGKLPNFGFVVFDDSEPVQRILIAKPIMFRGEVRLNVEEKKTRAARERETRGGGDDRRDIRRNDRGPGGPRGIVGGGMMRDRDGRGPPPRGGMAQKLGSGRGTGQMEGRFTGQRR"
